# Measured values from paper PMC5741264.
# By UniProt entry, the sequences of proteins in these tests, tags left out.
# UniProt Q8VZS8: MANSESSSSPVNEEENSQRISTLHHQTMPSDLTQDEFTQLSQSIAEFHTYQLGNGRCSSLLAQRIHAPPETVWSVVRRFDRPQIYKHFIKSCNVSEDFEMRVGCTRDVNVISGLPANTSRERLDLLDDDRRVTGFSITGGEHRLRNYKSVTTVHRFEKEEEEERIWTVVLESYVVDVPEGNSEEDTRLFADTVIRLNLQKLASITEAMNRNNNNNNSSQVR
# Where two headings read alike, the source gives them in different places. These are yes or no findings as the source states them, for the method shown. In cells and extracts the contact can be indirect. Some binding calls cover weakened binding; strength is not graded here. Where a sequence is shown, tags or fusion partners need not be part of it.
# T1: NUP85-Nluc (Arabidopsis thaliana) (UniProt Q8RXH2)
# T1 sequence: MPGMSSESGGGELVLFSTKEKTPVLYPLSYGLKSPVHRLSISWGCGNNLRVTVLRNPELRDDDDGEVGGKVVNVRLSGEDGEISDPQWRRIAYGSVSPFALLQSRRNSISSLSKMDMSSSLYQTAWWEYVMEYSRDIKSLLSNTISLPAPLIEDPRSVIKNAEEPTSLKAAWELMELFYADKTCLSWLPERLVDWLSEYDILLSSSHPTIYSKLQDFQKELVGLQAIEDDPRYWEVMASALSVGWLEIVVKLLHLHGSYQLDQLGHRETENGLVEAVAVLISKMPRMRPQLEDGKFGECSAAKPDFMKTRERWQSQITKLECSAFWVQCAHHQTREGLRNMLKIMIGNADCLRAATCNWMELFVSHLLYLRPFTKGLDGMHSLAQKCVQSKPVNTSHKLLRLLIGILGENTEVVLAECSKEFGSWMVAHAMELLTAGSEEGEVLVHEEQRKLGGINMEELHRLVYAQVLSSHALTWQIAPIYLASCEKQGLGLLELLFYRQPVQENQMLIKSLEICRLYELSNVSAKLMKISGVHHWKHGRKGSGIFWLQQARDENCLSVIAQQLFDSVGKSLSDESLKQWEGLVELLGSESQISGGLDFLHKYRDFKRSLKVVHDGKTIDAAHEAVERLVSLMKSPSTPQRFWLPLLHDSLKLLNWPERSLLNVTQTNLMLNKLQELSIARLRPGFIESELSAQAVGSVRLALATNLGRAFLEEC
# T2: NUP85-GFP (Arabidopsis thaliana) (UniProt Q8RXH2)
# T2 sequence: T1 sequence
# B1: Sec13A, split-luciferase fusion (protein, UniProt Q9SRI1 1-302)
# chain: MPPQKIETGHSDTIHDVVMDYYGKRVATASSDCTIKITGVSNSGGSQHLATLTGHRGPVWQVAWAHPKFGSLLASCSYDGQIILWKEGNQNQWTQAHVFTDHKVSVNSIAWAPHELGLSLACGASDGNISVFSARADGGWDTTKIDQAHPVGVTSVSWAPATEPGALVSSGMIDPVYKLASGGCDSTVKVWKFSNGSWKMDCFPALNKHTDWVRDVAWAPNLGLPKSTIASGSEDGKVIIWTIGKEGEQWEGTVLKDFKTPVWRVSWSLTGNLLAVSDGNNNVTVWKESVDGEWEQVTVVEP
# B2: MED18-Cluc (protein, UniProt Q9SJZ6 1-219)
# chain: MSMECVVQGIIETQHVEALEILLQGLCGVQRERLRVHELCLRSGPNLGVVSSEVRLLCDLDQPEPTWTVKHVGGAMRGAGADQISVLVRNMIESKVSKNALRMFYALGYKLDHELLKVGFAFHFQRTAHISVSVSSVNKMPKVHAIDEAVPVTPGMQIVDVTAPATSENYSEVAAAVSSFCEFLAPLVHLSKPSISTGVVPTAAAAAASLMSDGGGTTL
# B3: MED18-HA (protein, UniProt Q9SJZ6 1-219)
# chain: B2 chain
# Experiments:
# [1] = target: T1, NUP85-Nluc (Arabidopsis thaliana); assay: split reporter; split luciferase complementation in Arabidopsis protoplasts, about 1x10^4 protoplasts per sample co-transformed with nLUC/cLUC plasmids; LUC activity imaged in the dark
# [2] = target: T1, NUP85-Nluc (Arabidopsis thaliana); assay: as above; remark: listed apart in the source
# [3] = target: T2, NUP85-GFP (Arabidopsis thaliana); assay: co-IP; NUP85-GFP co-expressed with MED18-HA in Arabidopsis protoplasts; lysate (50 mM Tris-HCl pH 7.5, 150 mM NaCl, 5 mM EDTA, 0.1 Triton X-100) on GFP-Trap beads, at least 4 h; blots with anti-HA and anti-GFP
Molecule,binding [2],further results
PYL1-Cluc (from UniProt Q8VZS8 1-221),–,binding [1]: no binding
B1,binds,–
B2,binds,–
B3,–,binding [3]: binds
